Data reported in PubChem BioAssay AID504467 (National Center for Advancing Translational Sciences (NCATS), 2011).
Screen size: about 330,000 compounds; about 7,700 (2.3%) were called active. The shares of active, inactive and inconclusive entries below differ from those in the screen. Calls follow the shape of the dose curve; as a rule, active = well fitted inhibition curve with a large enough effect; inconclusive = small, poorly fitted or top-dose-only effect, or effect the other way; inactive = flat fitted curve, though single readings scatter. A potency beside an inconclusive call is a rough fit, not a confirmed value.

Experiment: qHTS screen for small molecules that inhibit ELG1-dependent DNA repair in human embryonic kidney (HEK293T) cells expressing luciferase-tagged ELG1; also: nearly all actives have a fitted effect of over 55% in size
Details: HEK293T ELG1-luciferase reporter, luminescence, 16 h, DNA damage induced by 5-fluorouridine; activity change, negative = inhibition: at 46.1 µM (top of the series)
Procedure, shortened: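 HEK293T cells expressing luciferase-tagged ELG1 (2,000/well) received 5-Fluorouridine plus compound or DMSO for 16 hr at 37 °C. Luciferase was read by ONE-Glo luminescence after 30 min at room temperature.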
% is scaled to controls: 0 for no effect and ±100 for the full control effect; potency is read from the fitted curve at half-maximal effect.

Compound	Potency	activity change, negative = inhibition
COc1ccc(-c2nn3c(-c4ccccn4)nnc3s2)cc1OC	inconclusive: 32.6 µM [inhibitor, single point]	–
Cc1cc2nc(-c3ccc(SCC(=O)N4CCOCC4)nc3)[nH]c2cc1C	inconclusive: 35.5 µM [inhibitor, single point]	–
CCN(c1ccccc1)S(=O)(=O)c1ccc(OC)c(NC(=O)c2ccccc2OC)c1	inconclusive: 0.461 µM [inhibitor, partial curve, poor fit]	–
CN(C)S(=O)(=O)c1cccc(NC(=S)N/N=C/C(=O)c2ccccc2)c1	inconclusive: 8.2 µM [inhibitor, partial curve, poor fit]	–
O=C(N/N=C/c1c[nH]c2ccccc12)c1cccc([N+](=O)[O-])c1	–	inactive: -14.1%
CSc1ccccc1NC(=O)CN1CC(C)OC(C)C1 (stereo not drawn)	inconclusive: 14.6 µM [inhibitor, partial curve, poor fit]	–
CSc1ccc(C(=O)C2CCCN(C(=O)c3nonc3C)C2)cc1 (stereo not drawn)	inconclusive: 20.6 µM [inhibitor, single point]	–
Cc1nc2cc3ccccc3cc2n1C	inconclusive: 16.4 µM [activator, single point]	–
CC(C)(C)OC(=O)N[C@H](C(=O)OC(C)(C)C)c1ccc(C(F)(F)F)cc1	–	inactive: 17.3%
COc1ccc(C(=O)/C=C2\Sc3ccccc3N2C)cc1	inconclusive: 2.59 µM [activator, partial curve]	–
COc1cccc(CNC(=O)COC(=O)c2c(C)nn(-c3ccccc3)c2Cl)c1	active: 23.1 µM	–
Cc1ccc(/C(O)=C2\C(=O)C(=O)N(CCc3c[nH]c4ccccc34)C2c2cccnc2)cc1 (stereo not drawn)	–	inactive: 0.358%
CC12CCC(CC1=O)C2(C)C (stereo not drawn)	inconclusive: 16.4 µM [activator, single point]	–
CC(C)(C)c1ccc(OCCC(=O)OCC(=O)NC2CCCCC2)cc1	–	inactive: -1.59%
Cc1ccc(NC(=O)NCCN2C(=O)C3C4C=CC(C4)C3C2=O)cc1 (stereo not drawn)	inconclusive: 8.2 µM [activator, partial curve]	–
COc1ccccc1CNc1ccc2c(c1)CCC2	inconclusive: 35.5 µM [activator, single point]	–
Cc1cc(C)c(/C([O-])=C(/C(=S)Nc2ccc(SC(F)F)cc2)[n+]2ccccc2)cc1C	inconclusive: 29.1 µM [inhibitor, single point]	–
COc1ccc(C(=O)/C=C/c2ccccc2)c(O)c1	inconclusive: 20.6 µM [activator, single point]	–
CC(C)(C)NC(=O)C(c1ccc(O)cc1)N(C(=O)Cn1nnc(-c2ccc(F)cc2)n1)c1ccccc1F (stereo not drawn)	–	inactive: -0.433%
Cc1cccc(-c2nc(CN3CCN(C(=O)C4CCCO4)CC3)cs2)c1 (stereo not drawn)	inconclusive: 29.1 µM [inhibitor, single point]	–
Cc1cccc(Cn2c(=O)n(-c3ccc(CC(=O)NCc4ccco4)cc3)c(=O)c3sccc32)c1	inconclusive: 16.4 µM [inhibitor, single point]	–
CC(=O)c1ccc(NC(=O)CCS(=O)(=O)c2ccc3c(c2)n(C)c(=O)c(=O)n3C)cc1	–	inactive: 7.59%
CCCNC(=O)Cn1c(=O)n(C)c2ccccc21	inconclusive: 18.3 µM [inhibitor, partial curve, poor fit]	–

Retrieved by compound from the entries so far, 3 records:
Compound	Potency	activity change, negative = inhibition
Cc1nc2cc3ccccc3cc2n1C	inconclusive: 16.4 µM [activator, single point]	–
COc1ccccc1CNc1ccc2c(c1)CCC2	inconclusive: 35.5 µM [activator, single point]	–
Cc1cc(C)c(/C([O-])=C(/C(=S)Nc2ccc(SC(F)F)cc2)[n+]2ccccc2)cc1C	inconclusive: 29.1 µM [inhibitor, single point]	–

The list goes on.

Compound	Potency	activity change, negative = inhibition
CCNC(=S)Nc1cc2oc3ccccc3c2cc1OC	–	inactive: 9.26%
Cn1/c(=N/NC(=O)c2cccc(OC(F)F)c2)sc2ccccc21	–	inactive: 1.8%
CCOc1cc(N2CCOCC2)c(OCC)cc1NC(=O)CN1C(=O)NC2(CCCCC2)C1=O	inconclusive: 0.164 µM [inhibitor, single point]	–
Cc1ccc(O)c(N=Cc2ccc(C)s2)c1	inconclusive: 20.6 µM [activator, single point]	–
CC(C)(C)n1ncc2c(=O)n(CC(=O)NCc3ccco3)cnc21	inconclusive: 2.59 µM [activator, full curve]	–
COc1ccc(C2(C)NC(=O)N(CC(=O)NC(C)c3ccc(CC(C)C)cc3)C2=O)cc1 (stereo not drawn)	inconclusive: 5.17 µM [inhibitor, partial curve, poor fit]	–
O=C(Nc1ccccc1N1CCCC1)c1ccc(Br)o1	–	inactive: 5.77%
COc1ccc(CN2CCC(=O)N([C@H](CO)CC(C)C)CC2)cc1	–	inactive: 7.79%
Cn1c2ccccc2c2c(C(=O)N3CCN(c4ccccc4)CC3)cn(C3CCCC3)c(=O)c21	inconclusive: 29.1 µM [inhibitor, single point]	–
Cc1cc(N)n(-c2cc(C)c3ccccc3n2)n1	inconclusive: 6.51 µM [activator, partial curve]	–
O=C(OCC(=O)c1cccc2ccccc12)c1ccc(CO)cc1	inconclusive: 18.3 µM [activator, partial curve]	–
CC(C)(C)n1cnc2cc(NC(=O)c3ccco3)ccc21	inconclusive: 16.4 µM [activator, partial curve]	–
COc1ccccc1CNCC(=O)Nc1ccc(N2CCOCC2)cc1	–	inactive: 1.36%
CCC1=NN(C(=O)c2ccc([N+](=O)[O-])cc2)C(O)(c2ccccc2)C1 (stereo not drawn)	inconclusive: 11.6 µM [inhibitor, partial curve, poor fit]	–
CC(=O)Nc1nnc(SCc2ccc(F)cc2)s1	inconclusive: 2.51 µM [activator, single point]	–
CCC(CN(C)C)Oc1cc(NCc2ccccc2)c2ncn(C(C)C)c2c1 (stereo not drawn)	–	inactive: 3.22%
CCC(O)CNC(=O)NC(=C(Cl)Cl)c1ccc(C)c(F)c1 (stereo not drawn)	inconclusive: 23.1 µM [inhibitor, partial curve]	–
Cc1ccc(C(=O)Cc2nnc(C)s2)cc1	inconclusive: 11.6 µM [activator, partial curve]	–
COc1ccccc1N1CCN(C(=O)c2cc3cc(Cl)ccc3[nH]2)CC1	inconclusive: 29.1 µM [inhibitor, single point]	–
Cc1cccc(COCC(Cc2ccccc2)N2CCN(C(=O)c3ccc(C(F)(F)F)cc3)CCC2=O)c1 (stereo not drawn)	inconclusive: 29.1 µM [inhibitor, single point]	–
Fc1cc(F)c(C2SCCN2C(=S)Nc2cccc(C(F)(F)F)c2)c(F)c1 (stereo not drawn)	inconclusive: 16.4 µM [inhibitor, single point]	–
CC1=C(C(=O)OCc2ccccc2)C(c2cccnc2)n2ncnc2N1 (stereo not drawn)	–	inactive: -12.8%
Cc1cccc(C(=O)NNC(=O)c2ccc(NC(=O)C(C)(C)C)cc2)c1	inconclusive: 23.1 µM [activator, partial curve]	–

Compound	Potency	activity change, negative = inhibition
CS(=O)(=O)c1nc(S(=O)(=O)c2ccc(Cl)cc2)c(NCCCn2ccnc2)s1	inconclusive: 23.1 µM [activator, single point]	–
O=C(Nc1cc([N+](=O)[O-])ccc1N1CCCC1)c1ccccc1	–	inactive: 3.86%
Cc1ccsc1C(=O)N/N=C/C=C/c1ccccc1[N+](=O)[O-]	inconclusive: 3.26 µM [activator, full curve, poor fit]	–
CC(C)(C)[C@H]1COC(=O)[C@H](NC(=O)OCC2c3ccccc3-c3ccccc32)C/C=C\C[C@@H](CC(=O)N(CCO)Cc2ccccc2)C(=O)N1	active: 10.3 µM	–
CCn1c(NCCc2ccc(OC)c(OC)c2)nc2c1c(=O)n(C)c(=O)n2C	active: 11.6 µM	–
CC(C)COc1ccc(CN=C(N)N=C(N)N)cc1Cl	–	inactive: -16.4%
COc1ccccc1C(=O)Nc1ccc(S(=O)(=O)N2CCCC2)cc1	inconclusive: 29.1 µM [inhibitor, single point]	–
CCN(CC)S(=O)(=O)c1ccc(OC)c(NC(=S)Nc2cc(C)ccc2C)c1	–	inactive: -9.52%
O=C(CSc1ncccn1)NC(=O)Nc1ccc2c(c1)OCCO2	inconclusive: 29.1 µM [activator, single point]	–
Cc1ccc(NC(=O)c2ncn(CC(=O)N[C@H](C)c3cccc4ccccc34)n2)cc1C	inconclusive: 9.2 µM [activator, partial curve]	–
Cc1ccc([N+](=O)[O-])cc1NC(=S)NCCc1ccccc1	–	inactive: 10%
Oc1ccc2ccccc2c1C=Nc1ccc(N2CCOCC2)cc1	–	inactive: -0.0099%
C#CCOCCOCCOCCNc1nc(N2CCN(C(=O)CCCCCCCCCCNC(=O)[C@H](CCCCN)n3cc(C[C@@H](C)CC)nn3)CC2)nc(N2CCN(C(=O)CCCCCCCCCCNC(=O)[C@@H]([C@H](C)O)n3cc(C)nn3)CC2)n1	inconclusive: 3.16 µM [inhibitor, partial curve, poor fit]	–
Cc1cc(C)cc(N(CC(=O)N2CC=C(c3ccccc3)CC2)S(=O)(=O)c2c(C)noc2C)c1	inconclusive: 23.1 µM [inhibitor, partial curve, poor fit]	–
CC(=O)c1cccc(NC(=O)NNC(=O)c2ccc(Cl)cc2Cl)c1	inconclusive: 29.1 µM [inhibitor, single point]	–
O=C1NC(=Nc2cccc(O)c2)S/C1=C\c1cccnc1	inconclusive: 29.1 µM [activator, single point]	–
CN(C(=S)NC(=O)c1ccc(Cl)cc1)C1CCCCC1	inconclusive: 8.2 µM [activator, partial curve]	–
CN(C)c1ccc(/C=N\NC(=O)c2cccc3cc[nH]c23)cc1	inconclusive: 5.8 µM [activator, partial curve]	–
O=C(COC(=O)c1ccc(O)cc1O)Nc1ccc2ccccc2c1	inconclusive: 29.1 µM [activator, single point]	–
CC1=Nc2cccc3cccc(c23)N1C	–	inactive: -3.04%
COc1ccc(Nc2nnc(SCC(=O)Nc3cc(C)on3)s2)cc1	inconclusive: 9.2 µM [activator, partial curve]	–
CCOc1ccc2nc(SC3CC(=O)N(c4ccccc4)C3=O)sc2c1 (stereo not drawn)	inconclusive: 14.6 µM [activator, partial curve]	–
